Data: article PMC5589589
These are yes or no findings as the source states them, for the method shown. In cells and extracts the contact can be indirect. Some entries that bind do so weakly or less than the wild type.

Protein sequences, listed by entry. Tags and fused reporters are not part of them.
UniProt Q13547: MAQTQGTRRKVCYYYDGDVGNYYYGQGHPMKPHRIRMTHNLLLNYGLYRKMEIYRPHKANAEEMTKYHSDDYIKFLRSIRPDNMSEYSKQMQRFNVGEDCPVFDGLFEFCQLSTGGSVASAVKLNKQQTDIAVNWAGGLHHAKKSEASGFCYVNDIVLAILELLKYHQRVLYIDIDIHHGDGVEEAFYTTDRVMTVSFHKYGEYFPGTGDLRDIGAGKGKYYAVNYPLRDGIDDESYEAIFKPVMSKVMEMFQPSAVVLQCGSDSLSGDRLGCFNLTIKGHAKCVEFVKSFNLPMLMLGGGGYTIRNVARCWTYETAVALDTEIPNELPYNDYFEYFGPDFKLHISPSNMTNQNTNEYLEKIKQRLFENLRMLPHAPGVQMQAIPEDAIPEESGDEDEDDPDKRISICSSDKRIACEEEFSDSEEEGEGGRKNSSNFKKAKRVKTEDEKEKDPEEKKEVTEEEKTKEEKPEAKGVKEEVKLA

Target: T1, zinc finger E-box binding homeobox 1 protein (ZEB1) (human) (UniProt P37275)
T1 sequence: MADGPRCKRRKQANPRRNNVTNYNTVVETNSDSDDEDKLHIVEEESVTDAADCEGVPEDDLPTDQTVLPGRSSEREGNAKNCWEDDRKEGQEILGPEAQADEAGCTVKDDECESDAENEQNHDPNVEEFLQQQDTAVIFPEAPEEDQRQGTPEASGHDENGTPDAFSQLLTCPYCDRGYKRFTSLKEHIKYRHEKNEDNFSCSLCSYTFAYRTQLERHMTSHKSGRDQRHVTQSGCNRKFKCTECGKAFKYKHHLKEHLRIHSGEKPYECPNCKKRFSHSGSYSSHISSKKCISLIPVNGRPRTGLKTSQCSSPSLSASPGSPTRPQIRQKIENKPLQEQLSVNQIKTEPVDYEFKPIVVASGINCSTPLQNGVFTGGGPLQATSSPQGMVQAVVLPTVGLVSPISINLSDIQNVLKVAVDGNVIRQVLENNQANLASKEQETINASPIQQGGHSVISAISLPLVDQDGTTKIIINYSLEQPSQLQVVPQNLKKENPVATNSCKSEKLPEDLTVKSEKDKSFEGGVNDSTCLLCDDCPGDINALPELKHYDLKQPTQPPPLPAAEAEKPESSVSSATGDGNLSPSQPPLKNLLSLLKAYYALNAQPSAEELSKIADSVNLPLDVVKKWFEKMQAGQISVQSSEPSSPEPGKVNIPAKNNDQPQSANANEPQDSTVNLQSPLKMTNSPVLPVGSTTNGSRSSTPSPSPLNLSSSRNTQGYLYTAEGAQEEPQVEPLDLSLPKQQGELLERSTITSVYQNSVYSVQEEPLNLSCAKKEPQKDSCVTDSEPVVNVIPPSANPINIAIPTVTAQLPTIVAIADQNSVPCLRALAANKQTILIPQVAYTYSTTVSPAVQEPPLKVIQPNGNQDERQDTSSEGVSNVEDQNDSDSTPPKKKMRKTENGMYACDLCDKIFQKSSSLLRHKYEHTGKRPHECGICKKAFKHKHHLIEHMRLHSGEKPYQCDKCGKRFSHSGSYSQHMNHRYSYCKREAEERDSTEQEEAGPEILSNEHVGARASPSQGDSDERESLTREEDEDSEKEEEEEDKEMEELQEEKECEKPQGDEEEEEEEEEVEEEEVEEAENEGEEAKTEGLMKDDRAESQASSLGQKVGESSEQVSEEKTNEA
Experiment: co-IP; lysates of ZEB1/231 cells incubated with specific antibodies and Protein G agarose beads at 4°C overnight; washed three times with 50 mM Tris (pH 7.5), 100 mM NaCl, 7.5 mM EGTA, 0.1% Triton X-100

binding: binds
Substance: histone deacetylase 1 (HDAC1) (from UniProt Q13547 1-482)
